In PMC6733876:
No constants are given. Whether binding was seen depends on the method and setting. Some entries that bind do so weakly or less than the wild type.

Sequences of proteins named here, by UniProt entry; tags and fusion partners are left off. A change or cut given only in a name is not applied to a line headed by its entry.
UniProt P98086: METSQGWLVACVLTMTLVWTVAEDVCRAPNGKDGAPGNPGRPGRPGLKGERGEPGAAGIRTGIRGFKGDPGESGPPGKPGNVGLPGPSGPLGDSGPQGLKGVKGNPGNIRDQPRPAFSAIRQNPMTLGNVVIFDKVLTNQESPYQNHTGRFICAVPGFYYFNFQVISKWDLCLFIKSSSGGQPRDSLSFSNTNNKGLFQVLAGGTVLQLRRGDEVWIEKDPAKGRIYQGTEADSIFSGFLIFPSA

Columns and labels:
[1] = target: human dendritic cell-specific intercellular adhesion molecule-3-grabbing nonintegrin (DC-SIGN), stable DCEK transfectant (human) (UniProt Q9NNX6); experiment: binding to transfected cells, immunoblot of the cell lysates; wild-type or DCEK transfectants incubated with 3% sera (NMS, NHS or C1q-depleted human serum) in TC buffer for 1 h at 37 °C; lysates immunoblotted for C1q
[2] = target: SIGN-R1, stable DCEK transfectant (mouse) (UniProt Q8CJ91); experiment: immunoblot of sucrose gradient fractions (monomer, dimer and multimer bands on SDS-PAGE); cells or tissues solubilised in 1% Triton X-100 in MES-buffered saline, sucrose gradient ultracentrifugation, 12 fractions, immunoblotted for DC-SIGN or SIGN-R1; without or with S. pneumoniae
[3] = target: SIGN-R1, endogenous in mouse spleen and lymph node (mouse (endogenous in spleen)) (UniProt Q8CJ91); experiment: as above
[4] = target: T1, DC-SIGN in spleens of DC-SIGN^BMT/SIGN-R1^TKO mice (human), Q9NNX6; experiment: as above; details: remark: other sources report otherwise
T1 chain: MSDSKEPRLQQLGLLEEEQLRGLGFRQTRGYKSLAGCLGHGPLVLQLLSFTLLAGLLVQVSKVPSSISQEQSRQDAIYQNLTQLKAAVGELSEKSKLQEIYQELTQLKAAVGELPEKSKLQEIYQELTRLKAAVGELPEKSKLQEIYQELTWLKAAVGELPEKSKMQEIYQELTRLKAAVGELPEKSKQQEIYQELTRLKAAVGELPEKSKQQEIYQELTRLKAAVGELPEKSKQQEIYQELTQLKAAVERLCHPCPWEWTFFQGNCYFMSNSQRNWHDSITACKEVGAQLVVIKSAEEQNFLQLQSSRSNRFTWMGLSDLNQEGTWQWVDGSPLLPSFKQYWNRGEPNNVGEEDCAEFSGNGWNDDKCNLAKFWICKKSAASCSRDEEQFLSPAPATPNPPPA

[5] = target: T2, human dendritic cell-specific intercellular adhesion molecule-3-grabbing nonintegrin (DC-SIGN), stable DCEK transfectant (human), Q9NNX6; experiment: as above; details: remark: other sources report otherwise
T2 chain: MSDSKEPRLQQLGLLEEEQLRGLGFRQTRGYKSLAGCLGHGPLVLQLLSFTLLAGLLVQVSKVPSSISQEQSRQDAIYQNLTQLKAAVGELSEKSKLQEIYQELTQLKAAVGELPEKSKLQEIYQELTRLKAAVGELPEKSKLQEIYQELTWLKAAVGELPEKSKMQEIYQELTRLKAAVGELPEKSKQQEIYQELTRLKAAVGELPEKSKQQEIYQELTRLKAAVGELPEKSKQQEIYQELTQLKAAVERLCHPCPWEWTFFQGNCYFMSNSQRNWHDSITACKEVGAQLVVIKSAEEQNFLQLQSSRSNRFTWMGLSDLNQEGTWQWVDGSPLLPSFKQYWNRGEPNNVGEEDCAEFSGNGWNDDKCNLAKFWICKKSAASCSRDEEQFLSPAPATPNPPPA

mouse C1q from normal mouse serum (from UniProt P98086 23-245; P14106 26-253; Q02105 30-246) (complex)
binding [1]: binds

B1: SIGN-R1, stable DCEK transfectant (receptor, UniProt Q8CJ91 1-325)
chain: MSDSTEAKMQPLSSMDDDELMVSGSRYSIKSSRLRPNSGIKCLAGCSGHSQVPLVLQLLSFLFLAGLLLIILFQVSKTPNTERQKEQEKILQELTQLTDELTSRIPISQGKNESMQAKITEQLMQLKTELLSRIPIFQGQNESIQEKISEQLMQLKAELLSKISSFPVKDDSKQEKIYQQLVQMKTELFRLCRLCPWDWTFLLGNCYFFSKSQRNWNDAVTACKEVKAQLVIINSDEEQTFLQQTSKAKGPTWMGLSDLKKEATWLWVDGSTLSSRFQKYWNRGEPNNIGEEDCVEFAGDGWNDSKCELKKFWICKKSATPCTEG
binding [2]: binds

B2: SIGN-R1, endogenous in mouse spleen and lymph node (receptor, UniProt Q8CJ91 1-325)
chain: MSDSTEAKMQPLSSMDDDELMVSGSRYSIKSSRLRPNSGIKCLAGCSGHSQVPLVLQLLSFLFLAGLLLIILFQVSKTPNTERQKEQEKILQELTQLTDELTSRIPISQGKNESMQAKITEQLMQLKTELLSRIPIFQGQNESIQEKISEQLMQLKAELLSKISSFPVKDDSKQEKIYQQLVQMKTELFRLCRLCPWDWTFLLGNCYFFSKSQRNWNDAVTACKEVKAQLVIINSDEEQTFLQQTSKAKGPTWMGLSDLKKEATWLWVDGSTLSSRFQKYWNRGEPNNIGEEDCVEFAGDGWNDSKCELKKFWICKKSATPCTEG
binding [3]: binds

B3: DC-SIGN in spleens of DC-SIGN^BMT/SIGN-R1^TKO mice, Q9NNX6 1-404 (receptor)
chain: MSDSKEPRLQQLGLLEEEQLRGLGFRQTRGYKSLAGCLGHGPLVLQLLSFTLLAGLLVQVSKVPSSISQEQSRQDAIYQNLTQLKAAVGELSEKSKLQEIYQELTQLKAAVGELPEKSKLQEIYQELTRLKAAVGELPEKSKLQEIYQELTWLKAAVGELPEKSKMQEIYQELTRLKAAVGELPEKSKQQEIYQELTRLKAAVGELPEKSKQQEIYQELTRLKAAVGELPEKSKQQEIYQELTQLKAAVERLCHPCPWEWTFFQGNCYFMSNSQRNWHDSITACKEVGAQLVVIKSAEEQNFLQLQSSRSNRFTWMGLSDLNQEGTWQWVDGSPLLPSFKQYWNRGEPNNVGEEDCAEFSGNGWNDDKCNLAKFWICKKSAASCSRDEEQFLSPAPATPNPPPA
binding [4]: binds

B4: human dendritic cell-specific intercellular adhesion molecule-3-grabbing nonintegrin (DC-SIGN), stable DCEK transfectant, Q9NNX6 1-404 (receptor)
chain: MSDSKEPRLQQLGLLEEEQLRGLGFRQTRGYKSLAGCLGHGPLVLQLLSFTLLAGLLVQVSKVPSSISQEQSRQDAIYQNLTQLKAAVGELSEKSKLQEIYQELTQLKAAVGELPEKSKLQEIYQELTRLKAAVGELPEKSKLQEIYQELTWLKAAVGELPEKSKMQEIYQELTRLKAAVGELPEKSKQQEIYQELTRLKAAVGELPEKSKQQEIYQELTRLKAAVGELPEKSKQQEIYQELTQLKAAVERLCHPCPWEWTFFQGNCYFMSNSQRNWHDSITACKEVGAQLVVIKSAEEQNFLQLQSSRSNRFTWMGLSDLNQEGTWQWVDGSPLLPSFKQYWNRGEPNNVGEEDCAEFSGNGWNDDKCNLAKFWICKKSAASCSRDEEQFLSPAPATPNPPPA
binding [5]: binds
